Experimental data: patent US6509377B1, “Use of a 2-hydroxy-4-trifluoromethylbenzoic acid derivatives as inhibitors of the activation of the nuclear transcription factor NF-κB” (J. Uriach & Cia, S.A., priority 1999, dated 2003)
Some of these results come from one statement about several compounds together.

Test system: human peripheral blood mononuclear cells (PBMC)
Assay: Cell viability controls of human PBMC (MTT assay)
Format: cell-based
Details: Example 6, 0.1-5 mM with or without LPS, start and after 19 hours incubation
Method: Prior to the various treatments, cell viability was determined by the Trypan Blue exclusion assay. Cells were diluted at a concentration of 2.5 million/ml with RPMI medium containing 10% fetal calf serum and were incubated (37° C., 5% CO2) 1 hour in 6-well plates (2 ml/well, 5 million PBMC) without adding any drug (control) or adding HTB (1-3 mM). Next, cells were incubated for further 10 minutes in the presence of 10 μg/ml E.coli lipopolysaccharide (LPS, 026:B6 serotype; Sigma). After incubation, a sample (100 μl) was taken in order to carry out a cell count as well as cell viability controls by measuring the ability of mitochondrial dehydrogenases to convert the soluble tetrazolium salt, MTT the insoluble product formazan (MTT assay). Cells were also incubated with HTB (3 mM) in the absence of LPS. In all cases, cell viability was equal to or higher than 95%.
Cells were diluted at a concentration of 2.5 million/ml with RPMI medium containing 10% fetal calf serum and were incubated (37° C., 5% CO2) 19 hours in 6-well plates (2 ml/well, 5 million PBMC). Incubations were carried out in the presence of 10 μg/ml E.coli lipopolysaccharide (LPS, 026:B6 serotype; Sigma) without adding any drug (control) or adding Triflusal or HTB (0.1-5 mM). Prior to incubations, cell viability controls were performed using the Trypan Blue exclusion assay. […]

CC(=O)Oc1cc(C(F)(F)F)ccc1C(=O)O [triflusal, 2-Acetyloxy-4-trifluoromethylbenzoic acid, reference compound]
cell viability: ≥ 95%

O=C(O)c1ccc(C(F)(F)F)cc1O [HTB, 2-hydroxy-4-trifluoromethylbenzoic acid]
cell viability: ≥ 95%
